Values from PubChem BioAssay AID686938 (Drosophila RNAi Screening Center, 2013).
The deposit covers about 23,000 reagents; shown is a random part of those with a known target gene and a result. Of all reagents, 75 (0.33%) got an active call. 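Raw plate signals without normalisation; calls rest on plate z-scores that were not deposited; ratio present for only 364 wells.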 A plus sign joins genes that one reagent is predicted to hit. Not given: the dose of the treatment.

Screen: 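Knock-downs reducing store-operated calcium influx in Drosophila cells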 (primary screen)
Cell system: Drosophila S2R+ cells
Reagents: long dsRNA against Drosophila genes, about 0.25 µg dsRNA per well, roughly 10,000 cells
Time to read-out: 5 days of knock-down before the calcium assay
Challenge: thapsigargin (SERCA pump blocker) to empty calcium stores; entry signal taken 4 min after adding it
Detection: 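Per-well fluo-4 fluorescence in two replicates, unnormalised, measured in resting cells and 4 min after store depletion by the SERCA blocker thapsigargin; ratio of the two present in few wells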
Direction: calcium entry signal: higher = stronger calcium signal after store depletion; resting calcium signal: higher = higher resting calcium signal
Units: calcium entry signal in fluorescence units; resting calcium signal in fluorescence units
Rule for the call: 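Called when the plate z-score of the entry-to-rest ratio, mean of duplicates, falls below −3; wells with low overall dye signal (Fmax z below −2) or more than five off-targets excluded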
Calls: active = strongly reduced calcium entry; inactive = no strong reduction

betaNACtes6 (Nascent-associated complex beta-subunit-like, testis 6) [DRSC22925] scored calcium entry signal, replicate 1 = 3.75e7; calcium entry signal, replicate 2 = 3.12e7; resting calcium signal, replicate 1 = 2.05e7; resting calcium signal, replicate 2 = 1.46e7; inactive.
After knock-down of CR32733 (pseudo) [DRSC17481] the results were calcium entry signal, replicate 1 = 3.41e7; calcium entry signal, replicate 2 = 3.74e7; resting calcium signal, replicate 1 = 1.68e7; resting calcium signal, replicate 2 = 1.76e7; inactive.
Knock-down of Tim10 + CG42497 [DRSC04664] came out at: calcium entry signal, replicate 1 = 2.39e7; resting calcium signal, replicate 1 = 1.27e7; inactive.
After knock-down of CecA1 (Cecropin A1) [DRSC16603] the results were calcium entry signal, replicate 1 = 2.56e7; calcium entry signal, replicate 2 = 2.77e7; resting calcium signal, replicate 1 = 1.42e7; resting calcium signal, replicate 2 = 1.42e7; inactive.
Knock-down of CG11585 [DRSC19410] resulted in: calcium entry signal, replicate 1 = 2.70e7; calcium entry signal, replicate 2 = 3.52e7; resting calcium signal, replicate 1 = 1.43e7; resting calcium signal, replicate 2 = 1.75e7; inactive.
TwdlZ (TweedleZ) [DRSC19154] showed calcium entry signal, replicate 1 = 3.27e7; calcium entry signal, replicate 2 = 4.25e7; resting calcium signal, replicate 1 = 1.74e7; resting calcium signal, replicate 2 = 1.83e7; inactive.
Knock-down of CG4887 [DRSC00670] gave: calcium entry signal, replicate 1 = 4.38e7; calcium entry signal, replicate 2 = 5.07e7; resting calcium signal, replicate 1 = 1.88e7; resting calcium signal, replicate 2 = 2.25e7; inactive.
Against CG4887 [DRSC21563], the values are calcium entry signal, replicate 1 = 4.25e7; calcium entry signal, replicate 2 = 3.56e7; resting calcium signal, replicate 1 = 2.62e7; resting calcium signal, replicate 2 = 1.68e7; inactive.
Against CG6660 [DRSC16087] the deposit lists calcium entry signal, replicate 1 = 6.12e7; calcium entry signal, replicate 2 = 3.91e7; resting calcium signal, replicate 1 = 2.59e7; resting calcium signal, replicate 2 = 1.57e7; inactive.
Depletion of CG18281 [DRSC11742] came out at: calcium entry signal, replicate 1 = 3.83e7; calcium entry signal, replicate 2 = 4.58e7; resting calcium signal, replicate 1 = 1.92e7; resting calcium signal, replicate 2 = 3.07e7; inactive.
Against kmg (kumgang) [DRSC02829], the values are calcium entry signal, replicate 1 = 4.27e7; calcium entry signal, replicate 2 = 3.63e7; resting calcium signal, replicate 1 = 1.98e7; resting calcium signal, replicate 2 = 1.79e7; inactive.
Against Ccz1 (Caffeine, calcium, zinc sensitivity 1) [DRSC08439] the deposit lists calcium entry signal, replicate 1 = 3.35e7; calcium entry signal, replicate 2 = 4.50e7; resting calcium signal, replicate 1 = 1.93e7; resting calcium signal, replicate 2 = 2.16e7; inactive.
After knock-down of ATPsynE (ATP synthase, subunit E) [DRSC15476] the results were calcium entry signal, replicate 1 = 3.46e7; calcium entry signal, replicate 2 = 3.96e7; resting calcium signal, replicate 1 = 1.47e7; resting calcium signal, replicate 2 = 1.85e7; inactive.
Silencing of CG14757 [DRSC06492] gave: calcium entry signal, replicate 1 = 3.78e7; calcium entry signal, replicate 2 = 2.78e7; resting calcium signal, replicate 1 = 1.74e7; resting calcium signal, replicate 2 = 1.72e7; inactive.
Silencing of TyrRS (Tyrosyl-tRNA synthetase) [DRSC10430] gave: calcium entry signal, replicate 1 = 3.39e7; calcium entry signal, replicate 2 = 3.84e7; resting calcium signal, replicate 1 = 1.56e7; resting calcium signal, replicate 2 = 2.39e7; inactive.
Depletion of Ndf (Nucleosome-destabilizing factor) [DRSC02775] resulted in: calcium entry signal, replicate 1 = 4.40e7; resting calcium signal, replicate 1 = 2.23e7; inactive.
Against CG1943 [DRSC12576], the entry reads calcium entry signal, replicate 1 = 4.36e7; calcium entry signal, replicate 2 = 3.47e7; resting calcium signal, replicate 1 = 2.26e7; resting calcium signal, replicate 2 = 1.64e7; inactive.
Silencing of CG10916 [DRSC06012] came out at: calcium entry signal, replicate 1 = 3.84e7; calcium entry signal, replicate 2 = 3.67e7; resting calcium signal, replicate 1 = 1.83e7; resting calcium signal, replicate 2 = 1.78e7; inactive.
Gr94a (Gustatory receptor 94a) [DRSC13597] showed calcium entry signal, replicate 1 = 3.19e7; calcium entry signal, replicate 2 = 3.09e7; resting calcium signal, replicate 1 = 1.72e7; resting calcium signal, replicate 2 = 1.62e7; inactive.
Silencing of CG11145 [DRSC06049] gave: calcium entry signal, replicate 1 = 5.86e7; calcium entry signal, replicate 2 = 4.32e7; resting calcium signal, replicate 1 = 2.55e7; resting calcium signal, replicate 2 = 1.83e7; inactive.
With knock-down of tna (tonalli) [DRSC09053] the results were calcium entry signal, replicate 1 = 4.73e7; calcium entry signal, replicate 2 = 4.87e7; resting calcium signal, replicate 1 = 2.40e7; resting calcium signal, replicate 2 = 2.12e7; inactive.
For tna (tonalli) [DRSC10937] the deposit lists calcium entry signal, replicate 1 = 1.95e7; calcium entry signal, replicate 2 = 2.66e7; resting calcium signal, replicate 1 = 1.00e7; resting calcium signal, replicate 2 = 1.07e7; inactive.
Against tna (tonalli) [DRSC23236] the deposit lists calcium entry signal, replicate 1 = 3.30e7; calcium entry signal, replicate 2 = 3.42e7; resting calcium signal, replicate 1 = 1.61e7; resting calcium signal, replicate 2 = 1.62e7; inactive.

Entries listed so far whose target name starts with T or t (6):
Tim10 + CG42497 [DRSC04664] → calcium entry signal, replicate 1: 2.39e7; resting calcium signal, replicate 1: 1.27e7; outcome: inactive
TwdlZ (TweedleZ) [DRSC19154] → calcium entry signal, replicate 1: 3.27e7; calcium entry signal, replicate 2: 4.25e7; resting calcium signal, replicate 1: 1.74e7; resting calcium signal, replicate 2: 1.83e7; outcome: inactive
TyrRS (Tyrosyl-tRNA synthetase) [DRSC10430] → calcium entry signal, replicate 1: 3.39e7; calcium entry signal, replicate 2: 3.84e7; resting calcium signal, replicate 1: 1.56e7; resting calcium signal, replicate 2: 2.39e7; outcome: inactive
tna (tonalli) [DRSC09053] → calcium entry signal, replicate 1: 4.73e7; calcium entry signal, replicate 2: 4.87e7; resting calcium signal, replicate 1: 2.40e7; resting calcium signal, replicate 2: 2.12e7; outcome: inactive
tna (tonalli) [DRSC10937] → calcium entry signal, replicate 1: 1.95e7; calcium entry signal, replicate 2: 2.66e7; resting calcium signal, replicate 1: 1.00e7; resting calcium signal, replicate 2: 1.07e7; outcome: inactive
tna (tonalli) [DRSC23236] → calcium entry signal, replicate 1: 3.30e7; calcium entry signal, replicate 2: 3.42e7; resting calcium signal, replicate 1: 1.61e7; resting calcium signal, replicate 2: 1.62e7; outcome: inactive
